Experiment: Singlet oxygen generation with Singlet Oxygen Sensor Green (SOSG) under LED irradiation
Type: physicochemical
Conditions: for A (fitting parameter for 1O2 generation curve): 0.1 W/cm^2, 650 nm LED for DBC-UiO and H2DBC, 640 nm for the others; for Relative yield of 1O2 generation: normalized based on PpIX
Protocol: A light-emitting diode (LED) array with peak emission at 640 nm was used as the light source of singlet oxygen generation. The irradiance of LED is 100 mW/cm^2. Singlet oxygen sensor green (SOSG) reagent (Life Technologies, Carlsbad, Calif., United States of America) was employed for the detection of singlet oxygen. H2DBP and DBP-UiO samples were prepared in 5 μM solutions/suspensions in HBSS buffer (for DBP-UiO samples, the concentration was calculated as ligand equivalents). To 2 mL each of these solutions/suspensions, SOSG stock solution (5 μL at 5 mM) was added (final concentration=12.5 μM) before fluorescence measurement.
For a typical measurement, fluorescence intensity was acquired on a spectrofluorophotometer (RF-5301PC, Shimadzu Corporation, Kyoto, Japan) with excitation at 504 nm and emission at 525 nm (slit width 3 nm/5 nm for ex/em). Fluorescence was measured after irradiation by LED for 0 (as background), 10 s, 20 s, 30 s, 1 min, 1.5 min, 2 min, 2.5 min, 3 min, 3.5 min, 4 min, 4.5 min, 5 min, 6 min and 7 min.
Singlet oxygen generation efficiencies of H2DBP and DBP-UiO were determined using Singlet Oxygen Sensor Green (SOSG, Life Technologies). After exposure to a LED light source (peak emission at 640 nm, energy irradiance of 100 mW/cm^2), the […] reagent SOSG reacted with ^1O2 to generate green fluorescence which was quantified with a fluorimeter. The fluorescence intensity was plotted against irradiation time. The ^1O2 generation was depicted with an exponential function that corresponded to a pseudo first-order process. The ^1O2 generation curve was fitted with the following equation: IF=A(1−e^−kt) (1) Where IF is fluorescence intensity and t represents irradiation time while A and k are fitting parameters (for detailed derivations, see SI). The fitted equations for H2DBP and DBP-UiO are: IH2DBP=68.3×(1−e^−0.0015t) (2) IDBP-UiO=87.6×(1−e^−0.0031t) (3)
Singlet Oxygen Sensor Green (SOSG) was employed to determine ^1O2 generation efficiencies of H2DBC and DBC-UiO. SOSG reacted with generated ^1O2 to give green fluorescence (λem=525 nm) that was quantified with a fluorometer. For comparison, ^1O2 generation efficiency of H2DBP, DBP-UiO and protoporphyrin IX (PpIX) were also determined. The fluorescence plotted against irradiation time was fitted with an exponential function (Eq 1): IF=A(1−e^−kt) (Eq 1) indicating a pseudo first-order ^1O2 generation process. In Eq 1, IF is fluorescence intensity and t is irradiation time while A and k are fitting parameters. The total ^1O2 generation yield was normalized based on that of PpIX to compare the overall photosensitization efficiency. DBC-UiO is ˜3 times as efficient as DBP-UiO in generating ^1O2.

Row | Compound | A (fitting parameter of singlet oxygen generation) (5 μM in HBSS, 640 nm LED 100 mW/cm^2) | A (fitting parameter for 1O2 generation curve) | Relative yield of 1O2 generation
1 | O=C(O)c1ccc(-c2c3nc(cc4ccc([nH]4)c(-c4ccc(C(=O)O)cc4)c4nc(cc5ccc2[nH]5)C=C4)C=C3)cc1 [H2DBP, 5,15-di(p-benzoato)porphyrin] | 68.3 | 101 | 1.8
2 | 5, 15-di(p-benzoato)chlorin [H2DBC] | – | 102 | 4.3
